# Measured values taken from patent publication US20100218416A1, “HYDROXYMETHYLFURFURAL ETHERS FROM SUGARS OR HMF AND BRANCHED ALCOHOLS” (FURANIX TECHNOLOGIES B.V., priority 2007, published 2010).
# Experiment: Cetane number of blend with additive free diesel fuel (ASTM D 6890)
# Assay type: physicochemical
# Conditions: 0.1 vol % blend with additive free diesel fuel
# Procedure: Oxygenated fuel additives may reduce the natural cetane number of the base diesel fuel. A 0.1 vol % blend of tBMF with additive free diesel fuel was prepared at an outside laboratory for cetane determination according to an ASTM D 6890 certified method.
structure (smiles),measurement,setting,value
"CC(C)(C)OCc1ccc(C=O)o1 [tBMF, 5-(tert-Butoxymethyl)furfural]",increase of cetane number versus reference additive-free diesel,,0.5
same,average cetane number,reference diesel 52.5,53.0
